These are yes or no findings as the source states them, for the method shown.

The assay concerns the target PfHsp70‐x C‐terminal truncated version with a missing EEVN motif (Plasmodium falciparum). The experiment in a line: SPR; PfHsp70‐x or PfHsp70‐xT immobilised on ProteOn GLC chips, peptides as analytes at 1.25-20 nM, 25°C, PBS‐Tween pH 7.4, with 2 mM ATP; both purified. (In general: Surface plasmon resonance follows binding to a sensor surface in real time, without labels.)

Consider ANNNMYRR [peptide ANNNMYRR], for which the binding entry was “no binding (only with 2 mM ATP)”.
With ALLLMYRR [peptide ALLLMYRR] the entry was “no binding (only with 2 mM ATP)”.
